Results are given in words; binding and its absence hold for the method and conditions named. Binding seen in cells or lysates may run through a third protein. Some results given as binding are weak or reduced against the parent protein; the word gives no strength.
Tests used:
[1] = biological target: GFP-Gal-3 (in SW480 cells) (human) (UniProt P17931); test: co-IP; SW480 cells transfected with GFP-Gal-3 plasmid (Supplementary Figure S3B)
[2] = biological target: Galectin-3 (SW480 cells) (human (endogenous in SW480)) (UniProt P17931); test: co-IP; anti-Gal-3 IP, or IP without antibodies, on µMACS Protein G magnetic microbeads from total protein extracts of SW480 cells; Western blot; performed one time
[3] = biological target: Galectin-3 (human (endogenous in HepG2)) (UniProt P17931); test: co-IP; co-IP of endogenous Gal-3 and GPRC5A in HepG2 cells (Supplementary Figure S2), Western blot
[4] = biological target: GFP-Gal-3 (in HepG2 cells) (human) (UniProt P17931); test: co-IP; HepG2 cells transfected with GFP-Gal-3 plasmid; IP with µMACS anti-GFP magnetic microbeads, µMACS Protein G microbeads as negative control; Western blot with anti-GPRC5A and anti-Gal-3

Chains of the proteins cited; added tags and fusions are not shown.
UniProt P17931: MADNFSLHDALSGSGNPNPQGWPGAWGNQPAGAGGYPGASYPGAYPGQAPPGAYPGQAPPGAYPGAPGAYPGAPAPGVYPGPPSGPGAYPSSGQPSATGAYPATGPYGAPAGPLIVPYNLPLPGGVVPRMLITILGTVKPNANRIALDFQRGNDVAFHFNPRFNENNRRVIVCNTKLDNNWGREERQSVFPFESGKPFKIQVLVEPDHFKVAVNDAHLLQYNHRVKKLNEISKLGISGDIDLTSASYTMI
UniProt Q8NFJ5: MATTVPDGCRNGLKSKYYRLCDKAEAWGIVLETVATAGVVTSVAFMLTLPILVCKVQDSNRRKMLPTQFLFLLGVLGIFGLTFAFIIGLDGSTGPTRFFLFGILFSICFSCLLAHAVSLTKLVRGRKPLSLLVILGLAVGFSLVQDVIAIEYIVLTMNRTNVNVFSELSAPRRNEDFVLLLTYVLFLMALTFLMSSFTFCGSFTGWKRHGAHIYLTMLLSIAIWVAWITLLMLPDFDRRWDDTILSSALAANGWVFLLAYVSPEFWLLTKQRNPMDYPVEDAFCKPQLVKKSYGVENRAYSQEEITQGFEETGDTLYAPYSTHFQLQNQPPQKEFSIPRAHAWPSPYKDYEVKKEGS

binding [1] | binding [2] | binding [3] | binding [4] | Substance
binds | binds | – | – | GPRC5A (SW480 cells) (from UniProt Q8NFJ5 1-357) (receptor)
– | – | binds | binds | orphan G-protein-coupled receptor GPRC5A (from UniProt Q8NFJ5 1-357)

Source: PMC12524283
